# Assay results reported in patent US20140288056A1, “METHODS FOR NON-TOXIC TREATMENT FOR DRUG WITHDRAWAL” (DEMERX, INC., priority 2013, published 2014).
# For at least one compound, name, drawing or mass did not settle the structure.
# Test system: dogs
# Assay: Acute oral toxicity/TK study in dogs
# Format: in vivo, dog
# Details: 10 mg/kg oral
smiles,measurement,value
CC[C@H]1C[C@H]2C[C@H]3c4[nH]c5ccc(O)cc5c4CCN(C2)[C@@H]13 [noribogaine],Persistence of convulsions and CNS-related clinical signs post-dose,3 h 40 m
